Measured values: article PMC10618295
Results are given in words; binding and its absence hold for the method and conditions named. In cells and extracts the contact can be indirect. Binding can be weak; no strength is given.

By UniProt entry, the sequences of proteins in these tests, tags left out.
UniProt Q92831: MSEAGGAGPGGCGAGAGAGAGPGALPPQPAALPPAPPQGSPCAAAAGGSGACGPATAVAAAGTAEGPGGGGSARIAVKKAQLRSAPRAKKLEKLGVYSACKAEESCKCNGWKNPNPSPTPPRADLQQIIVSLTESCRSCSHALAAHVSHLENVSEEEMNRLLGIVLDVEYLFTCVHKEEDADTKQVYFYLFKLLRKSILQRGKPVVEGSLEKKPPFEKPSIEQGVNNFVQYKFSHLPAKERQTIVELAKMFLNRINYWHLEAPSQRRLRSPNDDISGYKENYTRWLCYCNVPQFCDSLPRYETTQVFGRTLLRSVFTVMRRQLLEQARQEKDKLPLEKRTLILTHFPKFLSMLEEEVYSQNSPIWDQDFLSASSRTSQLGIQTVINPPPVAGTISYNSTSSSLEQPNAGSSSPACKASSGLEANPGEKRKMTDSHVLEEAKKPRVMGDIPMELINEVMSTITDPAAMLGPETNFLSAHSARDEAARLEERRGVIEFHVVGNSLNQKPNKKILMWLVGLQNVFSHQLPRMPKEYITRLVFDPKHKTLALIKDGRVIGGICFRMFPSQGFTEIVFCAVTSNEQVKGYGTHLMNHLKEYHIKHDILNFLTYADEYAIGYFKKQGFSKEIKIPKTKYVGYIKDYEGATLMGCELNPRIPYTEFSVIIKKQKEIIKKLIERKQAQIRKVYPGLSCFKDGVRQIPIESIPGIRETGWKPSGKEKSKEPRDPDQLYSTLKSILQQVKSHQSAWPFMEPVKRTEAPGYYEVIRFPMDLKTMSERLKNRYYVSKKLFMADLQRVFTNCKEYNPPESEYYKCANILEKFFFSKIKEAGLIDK

Target: KRAS^WT (plasmid overexpressed in HEK293T cells) (UniProt P01116)
Assay: co-IP; HEK293T cells transfected with KRAS^WT and Flag-E.V. or Flag-p300 (other acetyltransferase candidates in Supplementary Fig. 13); lysates precipitated with IgG or anti-KRAS antibody, blotted with anti-acetyl-lysine, anti-Flag and anti-KRAS

Substance | binding
TIP60 (from UniProt Q92993 1-513) (enzyme) | no binding
GCN5 (from UniProt Q92830 1-837) (enzyme) | no binding
PCAF (from UniProt Q92831 1-832) (enzyme) | no binding
Flag-p300 (from UniProt Q09472 1-2414) (enzyme) | binds
